Data published in US20020142016A1, “Stable skin care product containing a retinoid and a retinoid booster system in a dual compartment package” (priority 2000, published 2002).
pIC50: −log10 of the molar value.

Assays:
[1] = test system: retinoic acid oxidation (cytochrome P450 systems); experiment: Assay for NADPH dependent retinoic acid oxidation in rat liver microsomes; format: biochemical; conditions: Sprague Dawley, pH 7.4, probe retinoic acid, 10 μM
Method: The resulting homogenate was successively centrifuged for 30 min. at 10,000 g, 30 min. at 20,000 g, and 15 min. at 30,000 g, and the resulting supernatant was ultracentrifuged for 80 min. at 105,000 g. […] Protein concentrations were determined as described above.
Prepare the following assay buffer and store at 4° C.: 0.1 M PO4/0.1 mM EDTA/ 0.5 mM MgCl2, pH 7.4. On the day of the assay, prepare a 60 mM NADPH solution in buffer.
Quench with acidified ethanol/ BHT and extract with hexane/BHT as described above.
The chromatography instrumentation consisted of a Waters 600 gradient controller/pump, a Waters 996 Photodiode Array detector and a Waters 474 Scanning Fluorescence detector. Two HPLC protocols were used for retinoid analysis. […] The eluate was monitored for absorbance at 325nm and fluorescence at 325ex/480em. […] 189, 136-145 (1990). This system consisted of a 20 min. linear gradient from 68:32 (v/v) methanol/water containing 10 mM ammonium acetate to 4:1 (v/v) methanol:dichloromethane followed by a 5 min. hold at a flow rate of 1 mL/min.

TGase I = experiment: Transglutaminase (TGase I ELISA) assay in cultured keratinocytes with retinol; format: cell-based; conditions: Keratinocyte; concentration of booster which, with constant retinol 10^-7 M, inhibits TGase by 50%; read-out: Overall TG (IC 50)

SMILES	inhibition at 60 min, 100 µM [1]	pIC50 (TGase I)
Clc1ccccc1C(c1ccccc1)(c1ccccc1)n1ccnc1 [Clotrimazole]	85%	
Clc1ccc(COC(Cn2ccnc2)c2ccc(Cl)cc2Cl)c(Cl)c1 (centres unmarked) [Miconazole]		6.56
